Results taken from the supplement of paper PMC3334620.
Whole data set: some 33,000 sequences, median “E-score (-0.5 to 0.5)” near -0.0059, cut for the highest 2% near 0.26. Some of the results follow.

biological target: T1, Cin5 (UniProt P40917); test: PBM E-score (8-mer binding enrichment) (E-score (-0.5 to 0.5)); higher = stronger / more preferred TF binding; conditions: protein concentration: 100 nM; construct: GST-full length
T1 sequence: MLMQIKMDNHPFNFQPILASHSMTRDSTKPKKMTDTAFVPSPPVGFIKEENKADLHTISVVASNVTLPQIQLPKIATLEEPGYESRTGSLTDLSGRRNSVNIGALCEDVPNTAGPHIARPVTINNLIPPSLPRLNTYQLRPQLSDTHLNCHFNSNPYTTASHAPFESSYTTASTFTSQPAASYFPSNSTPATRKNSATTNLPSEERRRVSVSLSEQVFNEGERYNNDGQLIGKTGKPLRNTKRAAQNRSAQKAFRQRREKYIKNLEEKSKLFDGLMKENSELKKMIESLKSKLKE
Method in brief: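 Masliner-normalised scans of fluorescent anti-GST signal were the basis for scoring. That signal came from GST-tagged yeast transcription factors applied at about 100-200 nM to double-stranded universal all-10-mer Agilent arrays on fresh or once-stripped slides. Each ungapped eight-base word, pooled with its reverse complement, received an E-score from the Universal PBM Analysis Suite.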

Row | Sequence | PBM E-score
1 | CACGTTTA | -0.107
2 | GGTGTGCA | -0.238
3 | TACTCCTA | 0.066
4 | GTGAACCA | 0.0277
5 | CTAGTTCC | -0.053
6 | CTCCAAAC | 0.0165
7 | GTCATAGA | 0.0655
8 | CCGTGAAG | -0.21
9 | ACGTACAT | 0.175
10 | ATTGGTGG | 0.113
11 | CATCGGTA | -0.0459
12 | CTTAATCC | -0.0181
13 | GCAGTCCC | -0.317
14 | GGGGTGAA | -0.0833
15 | CTTTCTGC | 0.107
16 | GTTCTTAA | -0.00461
17 | AACTATAG | 0.051
18 | GGTGCACC | -0.128
19 | CAGAATCA | 0.0356
20 | CTCGACCA | -0.282
21 | CCATGCGC | 0.0317
22 | AATTGGAC | 0.167
23 | AGGACCCA | -0.183
24 | ACGCAGTC | -0.23
25 | GGCTACGA | -0.115

Row | Sequence | PBM E-score
26 | CATCATCC | 0.178
27 | AATGTACA | 0.114
28 | CCTAGTAA | -0.0612
29 | ATTGCTCG | 0.0561
30 | CTTTCAAA | 0.162
31 | CCGTCTAC | -0.0256
32 | CACGCCTC | -0.177
33 | CCGAGGCA | -0.143
34 | GCACTTAA | 0.0642
35 | GCCGAATA | 0.0518
36 | AAACGGAT | 0.247
37 | ACCTGACT | 0.145
38 | AGAGTCGG | -0.0293
39 | TCTACGCA | 0.0187
40 | GAACTCGA | 0.0923
41 | CACCAATG | 0.179
42 | AGAAAAGA | -0.106
43 | CGAAGTTC | -0.0408
44 | AACCCGTG | -0.338
45 | AACTTGCC | 0.0393
46 | AAAAATCT | 0.0604
47 | TCTAAGCA | 0.132
48 | AATAGTGG | 0.0995
49 | GGATGTGA | 0.00707
50 | GCAACCGA | -0.0746

Row | Sequence | PBM E-score
51 | CGGTCGGC | -0.247
52 | AGAGTTAA | 0.0368
53 | AACGAGGA | 0.0327
54 | GAACCCGC | -0.194
55 | GGAATTCC | -0.0348
56 | AAGTCACG | -0.00527
57 | ATAATCCC | 0.166
58 | ATAACCAA | 0.258
59 | CAAAATCC | 0.127
60 | AGCCACAA | 0.0169
61 | CAGTTTAC | -0.0464
62 | AGTTTAGC | -0.0182
63 | AATGCACG | -0.0173
64 | GACCTCGC | -0.115
65 | GAAGACAC | -0.0185
66 | CCGATGGA | -0.0955
67 | CGTTTAAA | -0.0294
68 | ATGCGTTA | 0.169
69 | ATACGGAG | 0.0433
70 | ATTTCGAG | 0.0981
71 | CGTAGTAG | -0.0942
72 | AATAGCAA | 0.168
73 | CGTAGCGC | -0.253
74 | GAATCGCA | -0.0879
75 | GCTTCTTA | -0.0842

Row | Sequence | PBM E-score
76 | ACAAGACA | 0.132
77 | ACCGATAC | 0.00438
78 | AGGGGCAG | -0.162
79 | AAAAGCAA | 0.143
80 | ATCCCGAC | 0.0664
81 | ATTGGTAG | 0.0257
82 | GCCGTAGA | -0.0858
83 | GGTAAGTA | -0.00023
84 | CCTGACTA | 0.202
85 | TGAAGCAA | -0.109
86 | ATAATCTC | 0.239
87 | GTTTGTCA | 0.235
88 | ATGCCTAC | -0.0991
89 | AGAATTAG | 0.0689
90 | ATCGTTAG | 0.0867
91 | AATCGAGA | 0.171
92 | AACCTGCT | 0.0853
93 | CCGCGCTC | -0.0111
94 | CATTTACG | 0.0496
95 | GGTCTTTA | 0.0127
96 | ATGCGAAC | 0.0685
97 | GACATTGC | -0.11
98 | ATATTTAA | 0.223
99 | CGGTACTC | -0.161
100 | ATGGTCCC | -0.053

Row | Sequence | PBM E-score
101 | TCACCCGA | 0.0795
102 | AGAGCAAT | -0.162
103 | AAGAGCGG | 0.0338
104 | CACCTTTC | -0.0182
105 | TCAGACGA | -0.022
106 | AGCTGATA | 0.0998
107 | AAAAAGAC | 0.0488
108 | CTAAGTAC | -0.0187
109 | AAGAGGAC | -0.151
110 | CACATCAC | 0.0569
111 | GCATAAAC | 0.115
112 | CGGGCCAA | -0.23
113 | CACTAAGA | 0.152
114 | ATAGCTCA | -0.0109
115 | AACATAGT | 0.112
116 | ATCCTGTC | -0.0814
117 | ACGTAGCT | -0.0544
118 | GCAGCGCC | -0.18
119 | CGGTGTCC | -0.213
120 | ACTTTTTA | -0.00388
121 | AAGATAAC | 0.14
122 | TGCCCTAA | -0.0446
123 | ATCGTAAA | 0.0952
124 | GGCGTGTA | -0.113
125 | CTGGGTGA | -0.107

Row | Sequence | PBM E-score
126 | GCAACGCA | -0.268
127 | AAGGTGGA | -0.0706
128 | AATGGCGC | 0.0304
129 | CGGTAAAC | -0.109
130 | CGATTACA | 0.177
131 | ATGCCAAA | -0.0697
132 | ATCCTGAA | 0.104
133 | AGACATCG | -0.124
134 | CGACGTAA | 0.0693
135 | GTCCCCGA | -0.0313
136 | CGACTCAA | 0.0867
137 | ACCGGTAT | 0.0261
138 | CACAGCAA | 0.225
139 | ACTGCTAT | 0.123
140 | TAGACTCA | -0.0692
141 | ACTCGGTC | 0.0248
142 | GCGCAAGC | -0.075
143 | ACGCTTAA | 0.00396
144 | ACACCAGC | -0.139
145 | AACTCGCG | 0.194
146 | ACTAGTCC | 0.116
147 | CTAATACC | 0.104
148 | GCCTACTA | 0.0349
149 | ATTAGTTG | 0.241
150 | GGGTAAGA | -0.0563

Row | Sequence | PBM E-score
151 | TACCATCA | -0.0241
152 | CGCTTTGA | 0.0203
153 | AGGGGACC | -0.229
154 | ATAATAAA | 0.24
155 | AGCAACCA | 0.197
156 | CGGTGACC | -0.223
157 | AAATCGGC | 0.0822
158 | AGTATTAG | 0.275
159 | AAAAACCT | 0.145
160 | CTGCCCGA | -0.00627
161 | AAAGGGTA | 0.0225
162 | AAGCGCCC | -0.0213
163 | CAAGGGGA | -0.0692
164 | CGAGTCTA | -0.247
165 | TCAAATCA | 0.146
166 | ATTGCCTG | 0.0952
167 | GAACATTA | 0.146
168 | AGGGCCTG | -0.298
169 | CCATCACA | -0.0582
170 | AACTGATG | 0.108
171 | CACGGATG | -0.0165
172 | GTACGAAA | 0.00511
173 | ACTCTAGG | -0.193
174 | GAACTATA | 0.25
175 | CCGAGAGA | 0.0415

4 entries from above, as labelled records:
AGGGCCTG
  PBM E-score: -0.298
CCATCACA
  PBM E-score: -0.0582
AACTGATG
  PBM E-score: 0.108
CACGGATG
  PBM E-score: -0.0165

Additional records follow:

Row | Sequence | PBM E-score
176 | CGGACAGC | 0.0135
177 | ACGCGCGA | 0.0689
178 | AGTTATAT | 0.196
179 | AACTCATA | 0.0893
180 | AAAGAGCA | 0.051
181 | CGGGACAG | 0.00791
182 | AGCGCCAA | -0.104
183 | GTTGCTCA | 0.00634
184 | GAGTTTCC | -0.0545
185 | ACAGAGTC | 0.0661
186 | GTTACCAA | 0.0591
187 | ACTCACCT | -0.046
188 | CGGTATAC | -0.0259
189 | GGTATGCA | -0.0414
190 | CAGTATGC | 0.0107
191 | TATCTCGA | 0.0911
192 | AGTGTAAA | 0.0996
193 | CGCTTGGA | -0.0635
194 | GGCTCGAC | -0.163
195 | GCCTCACC | -0.108
196 | AGAGGCCT | -0.28
197 | ATCGATGG | 0.118
198 | AAGGTTGC | -0.0959
199 | GTGCCAGA | -0.293
200 | GCAGCAAA | -0.0847

Row | Sequence | PBM E-score
201 | GATCCTCC | -0.2
202 | ACTCTAAT | 0.0832
203 | ACTCCAAC | 0.107
204 | GGGCCCAA | -0.0478
205 | CACGTGTC | -0.152
206 | CGGGGGGC | -0.356
207 | GGGATTGA | -0.0508
208 | AAATCTAA | 0.0371
209 | AGTTTTGA | 0.0556
210 | CTTCAGAA | 0.0169
211 | CCCCACCC | 0.153
212 | CCCTACGC | -0.224
213 | GCCTGAAC | -0.289
214 | GGGCCACC | -0.167
215 | GTGTTTCA | -0.124
216 | CTCGGCGA | 0.0665
217 | AAAGGAAA | 0.188
218 | ATGTAACA | 0.232
219 | AGGAAGGC | -0.164

Quoted from the listing.
CGGGGGGC | PBM E-score: -0.356
AAAGGAAA | PBM E-score: 0.188

Reprinted at random: three entries already listed.
Row | Sequence | PBM E-score
64 | GACCTCGC | -0.115
85 | TGAAGCAA | -0.109
123 | ATCGTAAA | 0.0952
